These are yes or no findings as the source states them, for the method shown. Binding seen in cells or lysates may run through a third protein. Some results given as binding are weak or reduced against the parent protein; the word gives no strength.
Target: β-catenin (human) (UniProt P35222)
Assay: co-IP; lysates of HEK293T cells co-expressing CDH20 and β-catenin; anti-β-catenin antibody overnight at 4°C, protein A/G-agarose beads 3 h at 4°C, three washes with cell lysis buffer, Western blot

By UniProt entry, the sequences of proteins in these tests, tags left out.
UniProt P35222: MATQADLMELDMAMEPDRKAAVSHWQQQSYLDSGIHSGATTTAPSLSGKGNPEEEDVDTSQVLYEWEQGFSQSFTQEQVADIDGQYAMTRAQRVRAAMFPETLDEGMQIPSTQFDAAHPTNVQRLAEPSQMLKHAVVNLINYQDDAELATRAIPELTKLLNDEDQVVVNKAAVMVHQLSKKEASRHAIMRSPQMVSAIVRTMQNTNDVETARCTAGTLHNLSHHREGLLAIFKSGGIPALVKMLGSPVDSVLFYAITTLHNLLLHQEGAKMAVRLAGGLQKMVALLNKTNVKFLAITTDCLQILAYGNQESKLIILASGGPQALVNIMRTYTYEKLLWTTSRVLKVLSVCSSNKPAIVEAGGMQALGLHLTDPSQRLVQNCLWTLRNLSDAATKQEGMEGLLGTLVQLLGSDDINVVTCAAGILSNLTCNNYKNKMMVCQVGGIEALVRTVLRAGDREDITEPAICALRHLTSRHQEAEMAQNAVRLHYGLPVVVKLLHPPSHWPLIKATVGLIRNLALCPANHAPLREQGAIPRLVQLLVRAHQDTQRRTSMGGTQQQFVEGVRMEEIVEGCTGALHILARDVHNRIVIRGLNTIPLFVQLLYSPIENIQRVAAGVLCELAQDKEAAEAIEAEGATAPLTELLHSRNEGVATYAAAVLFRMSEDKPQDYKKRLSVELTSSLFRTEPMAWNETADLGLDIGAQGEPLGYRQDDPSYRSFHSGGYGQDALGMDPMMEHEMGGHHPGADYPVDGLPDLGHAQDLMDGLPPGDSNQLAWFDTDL

binding: binds
B1: Cadherin 20 (protein, UniProt Q9HBT6 60-801)
chain: SWVWNQFFVLEEYTGTDPLYVGKLHSDMDRGDGSIKYILSGEGAGIVFTIDDTTGDIHAIQRLDREERAQYTLRAQALDRRTGRPMEPESEFIIKIQDINDNEPKFLDGPYVATVPEMSPVGTSVIQVTATDADDPTYGNSARVVYSILQGQPYFSVDSKTGVIRTALMNMDREAKEYYEVIIQAKDMGGQLGGLAGTTTVNITLSDVNDNPPRFPQKHYQMSVLESAPISSTVGRVFAKDLDEGINAEMKYTIVDGDGADAFDISTDPNFQVGIITVKKPLSFESKKSYTLKVEGANPHLEMRFLNLGPFQDTTTVHISVEDVDEPPVFEPGFYFVEVPEDVAIGTTIQIISAKDPDVTNNSIRYSIDRSSDPGRFFYVDITTGALMTARPLDREEFSWHNITVLAMEMNNPSQVGSVPVTIKVLDVNDNAPEFPRFYEAFVCENAKAGQLIQTVSAVDQDDPRNGQHFYYSLAPEAANNPNFTIRDNQDNTARILTRRSGFRQQEQSVFHLPILIADSGQPVLSSTGTLTIQVCSCDDDGHVMSCSPEAYMLPVSLSRGALIAILACIFVLLVLVLLILSMRRHRKQPYIIDDEENIHENIVRYDDEGGGEEDTEAFDIAAMWNPREAQAGAAPKTRQDMLPEIESLSRYVPQTCAVNSTVHSYVLAKLYEADMDLWAPPFDSLQTYMFEGDGSVAGSLSSLQSATSDSEQSFDFLTDWGPRFRKLAELYGASEGPAPLW
